In the experiment the test system is BDF1 mice, L1210/MTX-resistant leukemia ip, survival T/C. As to the kind of experiment: NCI In Vivo Anticancer Drug Screen. Data for tumor model L1210 Leukemia resistant to Methotrexate; NSC 740 (intraperitoneal) in B6D2F1 (BDF1) mice. As to conditions: T/C endpoint: mean survival time, higher T/C = longer survival. The method, then:
The antitumor activity of compounds was measured in mice bearing transplantable tumors. Survival or tumor size were measured and the results are expressed as the measurement made in the treated group (T) divided by the measurement made in the vehicle treated control group (C). The tumor model used in this assay is L1210 Leukemia resistant to Methotrexate; NSC 740 (intraperitoneal) in B6D2F1 (BDF1) mice

Setting [1] is: dose: 6.3 mg/kg/injection, schedule: Q01DX Z (ip), vehicle: methylcellulose (MC).
The mark [2] stands for this setting: dose: 12.5 mg/kg/injection, schedule: Q01DX Z (ip), vehicle: methylcellulose (MC).
[3] abbreviates: dose: 25.0 mg/kg/injection, schedule: Q01DX010 (ip), vehicle: saline.
Setting [4] is: dose: 50.0 mg/kg/injection, schedule: Q01DX010 (ip), vehicle: saline.
[5] abbreviates: dose: 50.0 mg/kg/injection, schedule: Q01DX Z (ip), vehicle: methylcellulose (MC).
Setting [6] is: dose: 100.0 mg/kg/injection, schedule: Q01DX Z (ip), vehicle: methylcellulose (MC).
Setting [7] is: dose: 200.0 mg/kg/injection, schedule: Q01DX Z (ip), vehicle: methylcellulose (MC).
[8] abbreviates: dose: 12.5 mg/kg/injection, schedule: Q01DX Z (ip), vehicle: other.
Where [9] appears, read: dose: 25.0 mg/kg/injection, schedule: Q01DX Z (ip), vehicle: other.
Setting [10] is: dose: 50.0 mg/kg/injection, schedule: Q01DX Z (ip), vehicle: other.
[11] abbreviates: dose: 250.0 mg/kg/injection, schedule: Q01DX Z (ip), vehicle: carboxymethylcellulose (CMC).

The list is a part of this screen's results and no random one: it is rich in T/C values a quarter to a half above the control, in often repeated tests (any T/C) and in doses without a T/C. Other doses and runs of a compound stand elsewhere. T/C gives the treated animals as a percentage of the vehicle group. Some entries give survivors of the animals treated and no T/C: the source files T/C as zero there, which appears to mark a toxic dose or a test without result, not a measured value. Some survivor counts are full or nearly so, which does not show that the dose was tolerated: survival well below the control is almost never listed, so the zero probably covers shortened survival too. Survivors were counted at the toxicity check, usually on the fifth day, unless a day is given; later deaths do not show. Schedules are NCI's codes, read here as Q, the interval in days (D) or hours (H), X, the number of doses. Some schedule codes hold Z or #, which are not explained here. Some entries were tested several times; the results are listed from low to high. Where survival is the endpoint, this PubChem deposit counts one and a half times the control or more as active, and values a quarter to a half above the control carry no call in these data; other NCI protocols may use other cut-offs. Some T/C values carry the count of animals alive at the toxicity check (mostly the fifth day); without a count, all were alive then.

`CNC=O`: the T/C is 125 % of control (dose: 75.0 mg/kg/injection, schedule: Q01DX Z (ip), vehicle: saline); 138 % of control (dose: 150.0 mg/kg/injection, schedule: Q01DX Z (ip), vehicle: saline); 126 % of control (dose: 600.0 mg/kg/injection, schedule: Q01DX Z (ip), vehicle: saline). In addition, where the note is “dose: 300.0 mg/kg/injection, schedule: Q01DX Z (ip), vehicle: saline”, the survivor count is recorded as 2 of 6.
Take `[I][Hg][CH2]C1COC([CH2][Hg][I])CO1` (stereo unspecified): the survivor count was 5 of 6 and 6 of 6 (dose: 3.2 mg/kg/injection, schedule: Q01DX Z (ip), vehicle: methylcellulose (MC)); 5 of 6 under setting [1]; 5 of 6 under setting [2]; 5 of 6 under setting [3]; 2 of 6 under setting [4].
In the case of `CC[C@]1(O)C[C@H]2CN(CCc3c([nH]c4ccccc34)[C@@](C(=O)OC)(c3cc4c(cc3OC)N(C=O)[C@H]3[C@@](O)(C(=O)OC)[C@H](OC(C)=O)[C@]5(CC)C=CCN6CC[C@]43[C@@H]65)C2)C1`, the survivor count (dose: 0.5 mg/kg/injection, schedule: Q01DX010 (ip), vehicle: saline) was 6 of 6.
As to `O=C1C(NC(=O)C2CCCCC2)=C(N2CC2)C(=O)C(NC(=O)C2CCCCC2)=C1N1CC1`, the survivor count was 6 of 6 under setting [2]; 6 of 6 (dose: 25.0 mg/kg/injection, schedule: Q01DX Z (ip), vehicle: methylcellulose (MC)); 0 of 6 and 4 of 6 under setting [5]; 0 of 6 under setting [6]; 0 of 6 under setting [7].
On to `N[C@@H](Cc1ccc(N(CCCl)CCCl)cc1)C(=O)O`, for which the survivor count (dose: 12.0 mg/kg/injection, schedule: Q01DX Z (ip), vehicle: carboxymethylcellulose (CMC)) is 6 of 6.
On to `C[C@@H]1C[C@@H]([C@H](O)CC2CC(=O)NC(=O)C2)C(=O)[C@@H](C)C1`, for which the survivor count is, setting by setting: (dose: 10.0 mg/kg/injection, schedule: Q01DX010 (ip), vehicle: saline) 6 of 6; under setting [8], 5 of 6; (dose: 20.0 mg/kg/injection, schedule: Q01DX010 (ip), vehicle: saline) 6 of 6; under setting [9], 6 of 6; (dose: 30.0 mg/kg/injection, schedule: Q01DX Z (ip), vehicle: carboxymethylcellulose (CMC)) 6 of 6; under setting [10], 6 of 6. Further, the survivor count is 0 of 6 and 6 of 6 (dose: 100.0 mg/kg/injection, schedule: Q01DX Z (ip), vehicle: other); 0 of 6 and 6 of 6 (dose: 200.0 mg/kg/injection, schedule: Q01DX Z (ip), vehicle: other). The T/C by setting is: under setting [8], 140 % of control; under setting [9], 86, 89, 114 % of control; under setting [10], 101 and 114 % of control.
For the compound `O[C@H](CN1CC1)[C@@H](O)CN1CC1`, the T/C by setting is: (dose: 0.04 mg/kg/injection, schedule: Q01DX Z (ip), vehicle: saline) 138 % of control; (dose: 0.08 mg/kg/injection, schedule: Q01DX Z (ip), vehicle: saline) 129 % of control; (dose: 0.12 mg/kg/injection, schedule: Q01DX Z (ip), vehicle: saline) 142 % of control; (dose: 0.25 mg/kg/injection, schedule: Q01DX Z (ip), vehicle: saline) 134 % of control; (dose: 0.5 mg/kg/injection, schedule: Q01DX Z (ip), vehicle: saline) 128 % of control [5 of 6 alive].
On to `O=C(Nc1ccc(C2=NCCN2)cc1)c1cccc(C(=O)Nc2ccc(C3=NCCN3)cc2)c1`, for which the T/C under setting [1] was 133 % of control.
Regarding `O=c1[nH]cc(F)c(=O)[nH]1`, the survivor count (dose: 100.0 mg/kg/injection, schedule: Q01DX Z (ip), vehicle: saline) is recorded as 5 of 6.
`N#[N+]c1cnc([O-])[nH]c1=O`: the survivor count is, setting by setting: (dose: 0.63 mg/kg/injection, schedule: Q01DX Z (ip), vehicle: methylcellulose (MC)) 6 of 6; (dose: 1.25 mg/kg/injection, schedule: Q01DX Z (ip), vehicle: methylcellulose (MC)) 6 of 6; (dose: 2.5 mg/kg/injection, schedule: Q01DX Z (ip), vehicle: methylcellulose (MC)) 6 of 6.
Regarding `CC/C(=C(/CC)c1ccc(O)cc1)c1ccc(O)cc1`, the survivor count (dose: 25.0 mg/kg/injection, schedule: Q01DX010 (sc), vehicle: steroid suspending solution) is reported as 6 of 6 and the survivor count (dose: 50.0 mg/kg/injection, schedule: Q01DX010 (sc), vehicle: steroid suspending solution) is on record as 6 of 6.
Consider `O=c1[nH]c(=O)n(C2CC(O)C(CO)O2)cc1I` (stereo unspecified), for which the survivor count (dose: 62.5 mg/kg/injection, schedule: Q01DX Z (ip), vehicle: carboxymethylcellulose (CMC)) is 6 of 6; the survivor count (dose: 125.0 mg/kg/injection, schedule: Q01DX Z (ip), vehicle: carboxymethylcellulose (CMC)) is 5 of 6; the survivor count under setting [11] is given as 6 of 6; the survivor count (dose: 500.0 mg/kg/injection, schedule: Q01DX Z (ip), vehicle: carboxymethylcellulose (CMC)) is on record as 5 of 6.
Regarding `CSc1ncnc2nc[nH]c12`, the survivor count runs as follows: (dose: 1.87 mg/kg/injection, schedule: Q01DX Z (ip), vehicle: carboxymethylcellulose (CMC)) 6 of 6; (dose: 3.75 mg/kg/injection, schedule: Q01DX Z (ip), vehicle: carboxymethylcellulose (CMC)) 6 of 6; under setting [11], 2 of 6.
In the case of `CCC(=O)O[C@H]1CC[C@H]2[C@@H]3CCC4=CC(=O)CC[C@]4(C)[C@H]3CC[C@]12C`, under “dose: 500.0 mg/kg/injection, schedule: Q01DX Z (sc), vehicle: steroid suspending solution”, the T/C is 98, 106, 108, 110 % of control.
Consider `O=C(Nc1ccc(C2=NCCN2)cc1)c1ccc(C(=O)Nc2ccc(C3=NCCN3)cc2)c([N+](=O)[O-])c1`, for which, for the setting “dose: 12.5 mg/kg/injection, schedule: Q01DX Z (ip), vehicle: saline”, the T/C was 133 % of control.
For the compound `CCC1=C(c2ccc(OC)cc2)CCC(C(=O)O)C1C` (stereo unspecified), the survivor count by setting is: under setting [5], 5 of 6; under setting [6], 6 of 6; under setting [7], 6 of 6; (dose: 400.0 mg/kg/injection, schedule: Q01DX Z (ip), vehicle: methylcellulose (MC)) 4 of 6; (dose: 800.0 mg/kg/injection, schedule: Q01DX Z (ip), vehicle: methylcellulose (MC)) 3 of 6.
Regarding `c1ccc(CNc2ncnc3[nH]ncc23)cc1`, the survivor count is, setting by setting: (dose: 32.0 mg/kg/injection, schedule: Q01DX010 (ip), vehicle: saline) 6 of 6; (dose: 64.0 mg/kg/injection, schedule: Q01DX010 (ip), vehicle: saline) 6 of 6.
Take `O=c1cn[nH]c(=O)[nH]1`: the survivor count is given as 6 of 6 (dose: 62.5 mg/kg/injection, schedule: Q01DX010 (ip), vehicle: saline) and 6 of 6 (dose: 125.0 mg/kg/injection, schedule: Q01DX010 (ip), vehicle: saline).
For `N#CCSc1ncnc2nc[nH]c12`, the survivor count (dose: 200.0 mg/kg/injection, schedule: Q01DX Z (ip), vehicle: carboxymethylcellulose (CMC)) is given as 0 of 6.
As for `CN(N=O)C(=O)NC(C=O)C(O)C(O)C(O)CO` (stereo unspecified), the T/C reads like this: under setting [3], 127 % of control; under setting [4], 140 % of control. Besides, the survivor count (dose: 200.0 mg/kg/injection, schedule: Q01DX Z (ip), vehicle: saline) is reported as 6 of 6.

Source of the values: PubChem BioAssay AID284 (DTP/NCI, 2004).
